The record followed here is patent US20090199310.

The exact form of at least one protein or probe is not confirmed.

The test system of the data set is CaDof1 (Capsicum annuum). Kind of data set: EMSA. Particulars: 100 ng protein, 1 ul of 2 uM probe, poly dIdC, HEPES/KOH pH 7.9, KCl; oligomers ligated before labelling; purified recombinant protein; label: 32P. A general note: In EMSA bound probe runs differently from free probe, usually more slowly.

On to “CTCTTTAATTTCCCA (double strand) [TMV-inducible element of CaPR-4 promoter]”, for which the binding result is reported as “binds”.
